Measured values taken from PMC4627082, “MCM ring hexamerization is a prerequisite for DNA-binding” (Nucleic Acids Research, 2015).
These are yes or no findings as the source states them, for the method shown. Some results given as binding are weak or reduced against the parent protein; the word gives no strength.

B1: PfMCMN-βT (1–256; K233A; R234A; K236A) (domain or fragment, Pyrococcus furiosus, UniProt Q8U3I4 1-256, looked up)
chain: MDREEMIERFANFLREYTDEDGNPVYRGKITDLLTITPKRSVAIDWMHLNSFDSELAHEVIENPEEGISAAEDAIQIVLREDFQREDVGKIHARFYNLPETLMVKDIGAEHINKLIQVEGIVTRVGEIKPFVSVAVFVCKDCGHEMIVPQKPYESLEKVKKCEQCGSKNIELDVNKSSFVNFQSFRIQDRPETLKGGEMPRFIDGILLDDIVDVALPGDRVIVTGILRVVLEAAEATPIFRKILEVNHIEPVSKEI
notes: Minichromosome Maintenance (MCM) protein of Pyrococcus furiosus, N-terminal domain, residues 1-256, with three alanine mutations of the β-turn; Made by site-directed mutagenesis of the PfMCMN-WT SUMO-fusion construct; SUMO removed by Ulp1; also called β-turn triple mutant; pCF076.1
B2: PfMCMN-ΔZFD (deletion of residues 131–181) (domain or fragment, UniProt Q8U3I4)
chain: MDREEMIERFANFLREYTDEDGNPVYRGKITDLLTITPKRSVAIDWMHLNSFDSELAHEVIENPEEGISAAEDAIQIVLREDFQREDVGKIHARFYNLPETLMVKDIGAEHINKLIQVEGIVTRVGEIKPFQSFRIQDRPETLKGGEMPRFIDGILLDDIVDVALPGDRVIVTGILRVVLEKREKTPIFRKILEVNHIEPVSKEI

Key:
[1] = target: PfMCMN-βT (1–256; K233A; R234A; K236A) (Pyrococcus furiosus) (UniProt Q8U3I4); test: crystal structure; hanging drop vapor diffusion, stock protein 340 μM, ammonium sulfate conditions; molecular replacement with the PfMCMN-WT monomer; 3.20 Å; both purified
[2] = target: PfMCMN-ΔZFD (deletion of residues 131–181) (Pyrococcus furiosus) (UniProt Q8U3I4); test: SEC; final size-exclusion chromatography step of purification; elution volume compared with PfMCMN-WT; both purified
[3] = target: PfMCMN-ΔZFD (deletion of residues 131–181) (Pyrococcus furiosus) (UniProt Q8U3I4); test: AUC; sedimentation velocity, 20°C, 50 000 rpm, 20 mM HEPES pH 7.6, 200 mM NaCl, 5 mM β-mercaptoethanol, interference and absorbance optics, c(s) distributions; isotherm of signal-average s-values fitted to monomer-hexamer self-association; some WT samples with 40-mer oligo-dT ssDNA (T40); both purified

Binder	binding [1]	binding [2]	binding [3]
B1	binds		
B2		no binding	no binding (tested: 360 μM)
